Paper PMC6970983
These are yes or no findings as the source states them, for the method shown. In cells and extracts the contact can be indirect. Binding can be weak; no strength is given.

Assays:
[1] = biological target: T1, linker for activation of T cell family (LAT) member 1 (mouse (endogenous in BMMCs)) (UniProt O54957); experiment: co-IP; postnuclear supernatants of IgE-sensitized BMMCs, non-activated or activated with antigen (TNP-BSA 0.25 μg/ml, 5 min); lysis buffer 25 mM Tris-HCl pH 7.5, 140 mM NaCl, 2 mM EDTA, 0.5% Triton X-100; LAT1 or LAT2 precipitated with specific antibodies on UltraLink protein A beads; blot with 4.1R-specific antibody
T1 sequence: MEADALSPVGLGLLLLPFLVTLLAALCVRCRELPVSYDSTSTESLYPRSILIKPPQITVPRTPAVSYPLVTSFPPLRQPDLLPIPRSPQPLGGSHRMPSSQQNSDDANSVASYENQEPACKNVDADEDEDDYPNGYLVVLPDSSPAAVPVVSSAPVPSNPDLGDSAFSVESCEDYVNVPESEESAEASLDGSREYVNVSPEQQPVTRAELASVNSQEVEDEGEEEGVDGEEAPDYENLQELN

[2] = biological target: T2, LAT member 2 (non-T cell activation linker) (mouse (endogenous in BMMCs)) (UniProt Q9JHL0); experiment: as above
T2 sequence: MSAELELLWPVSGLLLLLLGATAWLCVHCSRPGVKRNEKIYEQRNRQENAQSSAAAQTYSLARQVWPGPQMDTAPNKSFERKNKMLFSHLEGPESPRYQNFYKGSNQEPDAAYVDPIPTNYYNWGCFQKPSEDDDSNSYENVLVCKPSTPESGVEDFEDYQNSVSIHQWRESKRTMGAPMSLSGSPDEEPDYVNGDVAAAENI

Question: Which results are given for “Cytoskeletal protein 4.1R (mouse (endogenous in BMMCs))”?
Answer: binding [1]: binds; binding [2]: binds
